PubChem BioAssay AID2417 (National Center for Advancing Translational Sciences (NCATS), 2010)
“And” between values parts separate entries of the source, which are not always exact repeats. Identical values can stand only once. Screen size: about 140,000 compounds; about 4,300 (3.1%) were called active. Inconclusive means that the source gave no clear call. Such entries were picked first, then a sample of the others.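 The calls were made as follows: active = readout at or below -70, meaning at least 70% loss of cells showing the perinucleolar compartment, a nuclear body marking cancer cells; inconclusive = readout between -30 and a set limit; inactive = the rest.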

Assay: High Content Assay for Compounds that inhibit the Assembly of the Perinucleolar Compartment;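 also: plate controls were DMSO wells for no effect and camptothecin positive control wells for full effect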
Conditions: PC3M PTB-GFP, PNC prevalence imaging, 16 h; at 10 µM; stronger effect = lower value
Procedure, shortened: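 PC3M cells stably expressing PTB-GFP, 750–1000 cells/well, treated 16 h at 37 °C with compound (23 nl of library stock), in duplicate. After paraformaldehyde fixation and Hoechst stain, imaged at 20x; PNC prevalence scored by image analysis.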

Compound | activity change (PNC), negative = inhibition
CC(OC(=O)c1oc2ccccc2c1CSC1CCCCC1)C(=O)NC(N)=O (stereo unspecified) | inactive: 6.14%
CCN(CC)CCNC(C(=O)Nc1ccc([N+](=O)[O-])cc1Br)c1ccccc1 (stereo unspecified) | active: -104%
Cc1cc(Oc2ccc(C(C)(C)C)cc2)nc(N2CCOCC2)n1 | inconclusive: -37.4%
COc1ccc(CNc2ccc(-c3ccc(OC)cc3)nn2)cc1 | active: -87.9%
C=CCn1c(SCC(=O)NC23CC4CC(CC(C4)C2)C3)nc(O)cc1=O | active: -100%
CCC(CC)C(=O)Nc1cccc(C(=O)N2CCOCC2)c1 | inconclusive: -61.6%
COC(=O)c1c(NC(=O)CSc2ncnc3c2cnn3-c2ccccc2Cl)sc2c1CCCC2 | inactive: -17.5%
NC(=O)c1ccsc1NC(=O)COC(=O)Cc1cccc2ccccc12 | inconclusive: -45.9%
CC(=O)OCCNc1cc(SCc2ccco2)c2nonc2c1[N+](=O)[O-] | inactive: 13.5%
CN(C)/C=N/c1cc(=O)n(C)c(=O)n1Cc1ccccc1 | inactive: 39.8%
Cc1nnc(SCC(=O)N2c3ccccc3CC2C)s1 (stereo unspecified) | inconclusive: -76.6%
COc1cc(OC)cc(-c2nnc(SCC(=O)N3CCCc4ccccc43)o2)c1 | inconclusive: -39.4%
COc1ccc2nc(C)cc(SCC(=O)N/N=C/c3ccc(O)cc3O)c2c1 | inactive: 9.58%
CC(C)N(Cc1nc(-c2ccccc2)no1)S(=O)(=O)c1ccccc1 | inconclusive: -46.2%
Cc1nn(Cc2ccccc2)c(C)c1/C=N/NC(=O)c1cccnc1 | inconclusive: -44%
Cc1ccc(NC(=O)[C@@H]2CCCN2S(=O)(=O)c2ccccc2F)cc1S(=O)(=O)N1CCOCC1 | inconclusive: -79.6%
O=C(Cn1nnc(-c2ccc(Cl)cc2)n1)NCCC1=CCCCC1 | inactive: -0.474%
COc1ccc(NS(=O)(=O)c2cccc(Cl)c2Cl)cc1S(=O)(=O)N1CCCCC1 | inactive: 9.68%
COc1cc(NC(=S)NN2CCN(C)CC2)cc(OC)c1 | inconclusive: -50.7%
C=CCN(CC=C)C(=S)NC(=O)c1ccc(OC)c(Br)c1 | active: -85.7%
Cc1cccc(/C=N/NC(=O)C2CCCNC2=O)c1 (stereo unspecified) | active: -84.7%
O=C(CSc1ccc(-c2ccc(F)cc2)nn1)Nc1ccc2c(c1)OCCO2 | inconclusive: -33%
COc1ccc(N(C(C)C(=O)N/N=C/c2ccc(OCC(C)C)cc2)S(C)(=O)=O)cc1 (stereo unspecified) | inconclusive: -60.9%

Compound | activity change (PNC), negative = inhibition
COCCSc1ccccc1C(=O)Nc1nncs1 | inconclusive: -61.2%
CC(C)(C)c1[nH]c2ccccc2c1/C=N/O | inactive: 6.89%
O=c1[nH]nc(Sc2ncnc3sccc23)n1CCc1ccccc1 | inconclusive: -49%
CCN(CC(=O)Nc1cccc(C(C)=O)c1)S(=O)(=O)c1ccc(OC)cc1 | inconclusive: -46.3%
CCc1ccc(OCC(=O)N(C)C)c(Br)c1 | inconclusive: -44%
COc1ccccc1NC(=O)Cn1c(=O)n2nc(C)nc2c2ccccc21 | inconclusive: -38.6%
OC1C2CN3CCN(C2)CC1(Cc1ccccc1)C3 (stereo unspecified) | inconclusive: -43%
O=C(CNC(=O)c1ccc(F)cc1)N/N=C/c1cn[nH]c1-c1ccccc1 | active: -90.2%
c1ccc(-c2ccccc2OCCOCCN2CCCCC2)cc1 | inactive: -23%
Cc1cccc2c(=O)c(C(=O)NCCCN3CCOCC3)c[nH]c12 | active: -100%
Cc1nn(C)cc1C1C2=C(CC(C)(C)CC2=O)N(c2ccccc2)C2=C1C(=O)CC(C)(C)C2 | inconclusive: -71.3%
CSc1nc(C2CC2)cc(-c2cccs2)c1C#N | inconclusive: -52.7%
CCSc1nc2ccccc2[nH]1 | inconclusive: -56.7% and inconclusive: -43.8%
CCn1c(SCc2ccc(Cl)cc2Cl)nc2nc3c(cc2c1=O)CCCC3 | inactive: 29.1%
CC(C)(C)N1CC(c2nc3ccccc3n2Cc2ccc(Cl)cc2)CC1=O (stereo unspecified) | inactive: -9.46%
Cc1cc(C)c(S(=O)(=O)N(C)CC(N)=O)c(C)c1 | active: -84.9%
Cc1onc(-c2ccccc2)c1C(=O)NC(=S)Nc1sc2c(c1C#N)CCC(C)C2 (stereo unspecified) | inactive: -28.9%
CC(=O)c1ccc(NS(=O)(=O)Cc2ccc(Cl)cc2)cc1 | inactive: 5.29%
Cc1ccc2oc(-c3cccc(NC(=O)C4CCCO4)c3)nc2c1 (stereo unspecified) | inconclusive: -50.1%
CCOc1cc(/C=N/O)cc(Br)c1OCC | inconclusive: -30%
COC(=O)[C@H](CCSC)NC(=O)Nc1ccc(OC)cc1 | inconclusive: -40.6%
COc1cccc(C(C(=O)NC2CCCCC2)N(CC2CCCO2)C(=O)CNC(=O)c2ccco2)c1 (stereo unspecified) | inconclusive: -40.7%
O=C(N/N=C/c1ccccc1Cl)c1[nH]c2ccc(Br)cc2c1-c1ccccc1 | inconclusive: -58.7%

Compound | activity change (PNC), negative = inhibition
NNC(=O)c1ccc(Cn2cc(Cl)cn2)cc1 | inactive: 21.9%
COc1ccc(CCNC(=O)c2ccc(CNS(=O)(=O)c3cccc(Cl)c3)cc2)cc1OC | inconclusive: -50.8%
CC(=O)c1cccc(NC(=O)Cc2ccc3c(c2)CCCC3)c1 | inactive: -8.6%
Cc1csc(SC(C)C(=O)Nc2ccc(S(=O)(=O)N3CCCC3)cc2)n1 (stereo unspecified) | inconclusive: -30.1%
O=C(Nc1ccc2snnc2c1)Nc1cccc2ccccc12 | inconclusive: -33.9%
O=C(CSc1nnc(-c2ccccc2)n1-c1ccc(Cl)cc1)NC1CCS(=O)(=O)C1 (stereo unspecified) | inconclusive: -76.6%
Nc1c(C(=O)OCC2CCCO2)c2nc3ccccc3nc2n1C1CCCC1 (stereo unspecified) | inconclusive: -37.7%
N#Cc1cccc(NC(=O)Nc2cccs2)c1 | inconclusive: -30.9%
O=C(Cn1cnc2c(nnn2Cc2ccccc2)c1=O)N1CCN(c2ccccc2)CC1 | inconclusive: -46.8%
O=C(CC1NCCNC1=O)Nc1cc(Cl)cc(Cl)c1 (stereo unspecified) | inactive: 29.9%
CCC(C)OC(=O)C1=C(C)O[C@]23OC(N)=C(C#N)[C@]12C(=O)c1ccccc13 (stereo partly specified) | active: -100%
Cn1c(=O)c2c(ncn2CC(=O)N(Cc2ccccc2)c2ccccn2)n(C)c1=O | inconclusive: -44.2%
COCCCNCCOc1ccc(C(C)(C)c2ccccc2)cc1 | inactive: -1.89%
O=C(Nc1ccncc1)c1cc(F)cc(F)c1 | inconclusive: -37.4%
COC(=O)Oc1ccc(/C=N/NC(=O)CN(c2ccccc2Cl)S(C)(=O)=O)cc1OC | inconclusive: -67.1%
COn1c(=S)[nH]c2ccccc2c1=O | inconclusive: -31.7%
COc1ccc(CCN2C(=O)CS/C2=N\NC(=O)c2ccc(C(C)(C)C)cc2)cc1OC | inactive: 8.39%
Cc1cc(NC(c2ccc(Cl)cc2)c2ccc3cccnc3c2O)no1 (stereo unspecified) | inconclusive: -32.1%
CCOC(=O)c1sc(C)c2c1NC1(CCCCC1)NC2=O | inconclusive: -42.1%
CCCSc1nnc(NC(=O)Nc2ccc(F)cc2)s1 | active: -82.5%
Cc1ccc(N(CC2=NCCN2)c2cccc(O)c2)cc1 | inconclusive: -39.9%
Cn1c(SCC(=O)N2CCOCC2)nnc1-c1ccc(Cl)cc1Cl | inconclusive: -39.1%
CC(C)OC(=O)COc1ccc(-c2ccccc2)cc1 | inactive: 11.9%

Compound | activity change (PNC), negative = inhibition
CCCCCn1c(CNC(=O)CC)nc2ccccc21 | inconclusive: -37.7%
CCOC(=O)C1CCN(C(=O)Cc2c(C(=O)O)n(CC)c3ccccc23)CC1 | inconclusive: -63.3%
Cc1ccc(OCc2nnc(SCC(=O)Nc3cccc4ccccc34)n2-c2ccccc2)cc1 | active: -119%
CCCCn1c(=O)[nH]c(=O)c2c1nc(CN1C(=O)c3ccccc3S1(=O)=O)n2CCC | inconclusive: -40.8%
CCOC(=O)C(NCc1ccccn1)(NC(=O)c1cccnc1)C(F)(F)F (stereo unspecified) | active: -86.1%
Cc1[nH]c2ccccc2c1C(=O)CSc1nc2cc(S(=O)(=O)N3CCCCC3)ccc2o1 | inconclusive: -42.3%
Cc1c(C(=O)OCCOC(C)C)[nH]c2c1C(=O)CC(c1ccco1)C2 (stereo unspecified) | active: -91.3%
O=C(CN1C(=O)c2ccccc2S1(=O)=O)c1ccccc1 | inconclusive: -38.6%
Cc1ccc(S(=O)(=O)N2CCCCC2)cc1NC(=O)c1ccc2c(c1)OCO2 | inconclusive: -30.9%
C=CCn1c2ccccc2c2nnc(SCN3C(=O)c4ccccc4C3=O)nc21 | inactive: 46.4%
CN1C=CC2=C(C#N)C(N)C(C#N)(C#N)[C@H](c3ccccc3)[C@H]2C1 (stereo partly specified) | inconclusive: -79.7%
N/C(=N\OC(=O)N1c2ccccc2Sc2ccccc21)c1ccc(Br)cc1 | active: -113%
O=C(Oc1ccc2cc(Br)ccc2c1)N1CCCCCC1 | inconclusive: -30.3%
O=C(c1noc2c1CCc1ccccc1-2)N1CCCc2ccccc21 | inactive: 26.9%
CCCc1[nH]nc2c1C(c1cccc(OC)c1)C(C#N)=C(N)O2 (stereo unspecified) | inactive: 33.4%
O=C(CS(=O)(=O)Cc1ccccc1)N1CCc2ccccc21 | inconclusive: -36.7%
CCc1cccc2c(N=O)c(O)[nH]c12 | inconclusive: -47.7%
COc1ccccc1OCC(=O)c1[nH]c(C)c(C(C)=O)c1C | inactive: 22%
COc1cccc(Nc2nnc(SCC(=O)N(CC(C)C)CC(C)C)s2)c1 | inconclusive: -42.5%
Oc1sc(C=Nc2ccccc2)c2ccccc12 | inactive: 26.2%
CCOc1ccc(NC(=O)CSc2nnc(Cc3cccn3C)n2-c2ccc(OC)cc2)cc1 | inactive: -2.15%
CCOc1ccccc1N1C(=O)CC(N(O)c2ccccc2)C1=O (stereo unspecified) | inconclusive: -41.4%
